## Results of single-concentration screens

Chains of the proteins cited; added tags and fusions are not shown. Residues count along the entry.
UniProt Q8IDJ8, 1-583: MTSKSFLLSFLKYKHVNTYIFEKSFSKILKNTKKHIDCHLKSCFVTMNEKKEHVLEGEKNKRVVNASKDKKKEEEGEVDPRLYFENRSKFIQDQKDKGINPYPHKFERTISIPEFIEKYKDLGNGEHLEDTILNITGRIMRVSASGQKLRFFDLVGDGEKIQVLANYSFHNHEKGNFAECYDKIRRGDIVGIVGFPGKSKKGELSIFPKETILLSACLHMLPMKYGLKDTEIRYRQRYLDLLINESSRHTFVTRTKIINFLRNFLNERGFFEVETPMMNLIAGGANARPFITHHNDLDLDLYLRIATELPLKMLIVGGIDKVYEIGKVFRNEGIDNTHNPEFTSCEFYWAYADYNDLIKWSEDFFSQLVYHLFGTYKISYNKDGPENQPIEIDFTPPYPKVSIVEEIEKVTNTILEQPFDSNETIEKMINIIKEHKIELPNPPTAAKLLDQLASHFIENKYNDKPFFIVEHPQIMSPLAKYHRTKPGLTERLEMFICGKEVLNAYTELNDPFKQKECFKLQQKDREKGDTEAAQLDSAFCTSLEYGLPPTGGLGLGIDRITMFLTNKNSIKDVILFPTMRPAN
UniProt I6X8D2, whole entry: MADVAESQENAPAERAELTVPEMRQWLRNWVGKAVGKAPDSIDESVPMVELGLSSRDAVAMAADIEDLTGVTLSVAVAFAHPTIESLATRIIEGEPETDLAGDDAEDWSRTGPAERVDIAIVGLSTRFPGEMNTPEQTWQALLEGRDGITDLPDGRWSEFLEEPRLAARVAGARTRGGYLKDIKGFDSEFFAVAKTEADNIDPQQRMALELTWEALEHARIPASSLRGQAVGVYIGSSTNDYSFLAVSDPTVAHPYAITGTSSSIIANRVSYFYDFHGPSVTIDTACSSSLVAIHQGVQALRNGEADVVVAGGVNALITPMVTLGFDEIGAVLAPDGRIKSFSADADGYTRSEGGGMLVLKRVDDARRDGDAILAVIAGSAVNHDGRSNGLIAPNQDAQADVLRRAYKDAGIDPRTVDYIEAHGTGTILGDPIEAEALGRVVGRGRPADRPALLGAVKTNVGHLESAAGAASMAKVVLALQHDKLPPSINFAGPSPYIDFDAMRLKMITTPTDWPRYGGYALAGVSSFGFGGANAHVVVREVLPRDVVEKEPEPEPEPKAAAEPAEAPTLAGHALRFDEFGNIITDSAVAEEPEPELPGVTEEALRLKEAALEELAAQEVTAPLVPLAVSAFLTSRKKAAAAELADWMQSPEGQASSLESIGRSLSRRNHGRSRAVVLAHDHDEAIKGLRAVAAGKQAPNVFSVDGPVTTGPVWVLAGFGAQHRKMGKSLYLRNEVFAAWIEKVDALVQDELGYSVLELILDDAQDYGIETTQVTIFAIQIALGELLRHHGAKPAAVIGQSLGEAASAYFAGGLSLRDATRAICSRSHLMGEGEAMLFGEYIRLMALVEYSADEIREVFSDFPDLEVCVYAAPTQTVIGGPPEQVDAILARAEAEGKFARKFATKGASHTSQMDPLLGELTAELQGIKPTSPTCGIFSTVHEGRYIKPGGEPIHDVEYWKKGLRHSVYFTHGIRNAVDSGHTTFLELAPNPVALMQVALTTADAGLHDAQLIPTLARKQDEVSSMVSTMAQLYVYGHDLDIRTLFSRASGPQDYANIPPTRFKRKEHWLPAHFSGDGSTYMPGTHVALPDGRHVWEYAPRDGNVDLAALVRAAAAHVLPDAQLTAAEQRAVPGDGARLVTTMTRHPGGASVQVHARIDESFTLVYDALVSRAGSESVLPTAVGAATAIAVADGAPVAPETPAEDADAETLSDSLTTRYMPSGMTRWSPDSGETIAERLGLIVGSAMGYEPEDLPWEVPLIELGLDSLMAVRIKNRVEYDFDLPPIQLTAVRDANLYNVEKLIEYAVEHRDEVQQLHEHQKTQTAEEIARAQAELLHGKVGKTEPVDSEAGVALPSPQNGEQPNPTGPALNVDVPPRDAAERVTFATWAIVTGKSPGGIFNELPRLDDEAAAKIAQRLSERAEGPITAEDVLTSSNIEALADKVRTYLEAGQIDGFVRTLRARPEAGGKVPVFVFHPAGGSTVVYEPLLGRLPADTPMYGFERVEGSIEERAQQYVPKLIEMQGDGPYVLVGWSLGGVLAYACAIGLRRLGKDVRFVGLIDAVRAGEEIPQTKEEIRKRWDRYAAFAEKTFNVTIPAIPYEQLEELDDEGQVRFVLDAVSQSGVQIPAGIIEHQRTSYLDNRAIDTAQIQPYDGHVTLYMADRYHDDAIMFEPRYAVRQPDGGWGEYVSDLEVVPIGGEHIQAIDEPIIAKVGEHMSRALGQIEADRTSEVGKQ
UniProt P9WNZ1, whole entry: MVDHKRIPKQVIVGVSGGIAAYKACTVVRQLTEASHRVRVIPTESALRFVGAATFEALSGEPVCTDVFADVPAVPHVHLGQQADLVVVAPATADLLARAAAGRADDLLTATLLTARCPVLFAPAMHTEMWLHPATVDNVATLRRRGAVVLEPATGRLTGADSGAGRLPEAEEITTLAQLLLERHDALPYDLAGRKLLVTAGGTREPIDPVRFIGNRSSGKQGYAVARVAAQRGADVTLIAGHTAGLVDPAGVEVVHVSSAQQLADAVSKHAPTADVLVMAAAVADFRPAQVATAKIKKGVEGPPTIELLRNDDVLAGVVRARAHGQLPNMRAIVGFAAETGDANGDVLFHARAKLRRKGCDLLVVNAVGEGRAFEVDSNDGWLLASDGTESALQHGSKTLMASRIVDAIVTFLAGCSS
UniProt Q4DA54, 1-478: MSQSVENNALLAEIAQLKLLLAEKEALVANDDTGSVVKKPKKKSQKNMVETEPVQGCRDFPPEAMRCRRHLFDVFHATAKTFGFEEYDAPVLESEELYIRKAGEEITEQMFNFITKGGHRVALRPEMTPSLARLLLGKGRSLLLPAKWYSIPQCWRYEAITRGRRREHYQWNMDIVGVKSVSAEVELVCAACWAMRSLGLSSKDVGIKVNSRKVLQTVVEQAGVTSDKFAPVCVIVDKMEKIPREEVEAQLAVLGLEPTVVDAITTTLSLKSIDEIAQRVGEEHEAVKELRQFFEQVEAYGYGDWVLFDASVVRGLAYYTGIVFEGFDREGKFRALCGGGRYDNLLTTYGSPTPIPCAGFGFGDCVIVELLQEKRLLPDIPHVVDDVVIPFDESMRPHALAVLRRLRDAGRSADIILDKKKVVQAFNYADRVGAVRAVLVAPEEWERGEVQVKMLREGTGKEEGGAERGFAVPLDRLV
UniProt P9WFT3, whole entry: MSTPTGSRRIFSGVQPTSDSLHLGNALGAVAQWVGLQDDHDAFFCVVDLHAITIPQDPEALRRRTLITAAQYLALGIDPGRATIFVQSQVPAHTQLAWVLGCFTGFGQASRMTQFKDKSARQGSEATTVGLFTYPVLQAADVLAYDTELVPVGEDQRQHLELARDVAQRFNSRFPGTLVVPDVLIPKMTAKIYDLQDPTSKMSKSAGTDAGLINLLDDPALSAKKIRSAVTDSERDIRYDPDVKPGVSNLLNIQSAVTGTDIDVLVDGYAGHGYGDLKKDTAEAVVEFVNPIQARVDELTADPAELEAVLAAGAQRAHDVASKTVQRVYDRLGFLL
UniProt P9WPC5, whole entry: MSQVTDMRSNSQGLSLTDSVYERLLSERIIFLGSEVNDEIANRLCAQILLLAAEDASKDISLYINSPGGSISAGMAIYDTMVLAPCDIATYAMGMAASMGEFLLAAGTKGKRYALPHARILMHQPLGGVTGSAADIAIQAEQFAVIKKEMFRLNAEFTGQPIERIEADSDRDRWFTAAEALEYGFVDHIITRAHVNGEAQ
UniProt P9WPC3, whole entry partner: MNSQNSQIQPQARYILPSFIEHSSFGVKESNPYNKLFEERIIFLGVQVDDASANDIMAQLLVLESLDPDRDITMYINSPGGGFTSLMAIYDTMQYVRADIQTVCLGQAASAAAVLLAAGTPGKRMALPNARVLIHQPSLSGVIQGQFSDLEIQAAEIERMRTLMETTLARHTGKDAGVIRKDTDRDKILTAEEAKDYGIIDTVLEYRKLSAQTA

Data taken from ChEMBL document CHEMBL3988442, “University of Dundee, Small-Polar-MMV Screening Library” (2021).

A: 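Lysine-tRNA ligase, Plasmodium falciparum 3D7 (UniProt Q8IDJ8). Enzyme assay of the cytosolic lysyl-tRNA synthetase in 384-well plates, read by luminescence. Tested at 30 µM. Higher reads as stronger inhibition, judged from the few compounds that gave an IC50. Of about 69,000 compounds tested this way, about 49 (0.071%) reached 50% or more in at least one test.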
B: 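Polyketide synthase Pks13, Mycobacterium tuberculosis (UniProt I6X8D2). Enzyme assay of the thioesterase domain of polyketide synthase 13; the read-out is not stated. Concentration: 30 µM. Higher reads as stronger inhibition (inferred from which compounds were picked for retests). About 67,000 compounds were tested under these conditions; 0.46% (about 300) showed 50% or more at least once.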
C: 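Coenzyme A biosynthesis protein CoaBC, Mycobacterium tuberculosis (UniProt P9WNZ1). Enzyme assay of CoaBC with a phosphate dye (Biomol Green) read at 650 nm. Concentration: 30 µM. Higher reads as stronger inhibition, judged from the few compounds that gave an IC50. Most strong results did not repeat in a second test. Of about 67,000 compounds tested this way, about 40 (0.06%) reached 50% or more in at least one test.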
D: 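Histidine-tRNA ligase, Trypanosoma cruzi CL Brener (UniProt Q4DA54). Enzyme assay of histidyl-tRNA synthetase; the read-out is not stated. Tested at 30 µM. Higher reads as stronger inhibition (inferred: compounds with an IC50 in retests scored well above the rest). Size under these conditions: about 69,000 compounds, about 31 of them at 50% or above in at least one test.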
E: 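Enzyme assay of tryptophanyl-tRNA synthetase; the read-out is not stated. Target: Tryptophan-tRNA ligase, Mycobacterium tuberculosis (UniProt P9WFT3). Compounds at 10 µM. Higher most likely means stronger inhibition; the record gives no direction and few retests gave an IC50. About 65,000 compounds were tested under these conditions; 0.098% (about 64) showed 50% or more at least once.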
F: 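ClpP1P2, Mycobacterium tuberculosis (UniProt P9WPC5 and UniProt P9WPC3). Protease assay of ClpP1P2, read by the AMC dye that it sets free. Compounds at 50 µM. Higher reads as stronger inhibition, judged from the few compounds that gave an IC50. Most other retested compounds had strongly negative values. Of about 69,000 compounds tested this way, about 10 (0.015%) reached 50% or more in at least one test.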

Results are given as percent effect. The controls that fix the scale are not given in the record; negative values are as filed. Compounds were drawn at random from those tested, without regard to their results.

Result for CCn1nc2c(cc1=O)CN(CCCOc1ccc(C#N)cc1)CC2 was A: -2.34%; B: 39.07%; C: -18.15%; D: 22.22%; E: 4.311%; F: -9.358%. Result for CCN(CC1CCCO1)C(=O)Nc1cc(OC)c(OC)cc1C (centres undefined) was A: 3.946%; B: -20.27%; C: -0.7712%; D: 0%; E: 0.5508%; F: 5.976%. With Cc1cc(C)nc(N2CCCC(c3cccc(-n4ccnc4)n3)C2)n1 (centres undefined) the screen gave A: 4.001%; B: -8.199%; C: 6.311%; D: 8.791%; F: -9.862%. Result for c1ncn(CC2CCCCN2Cc2csc(-c3ccsc3)n2)n1 (centres undefined) was A: 2.526%; B: -3.781%; C: 4.462%; D: 7.429%; E: -2.751%; F: -17.46%.

Result for CC(=O)NCCNC(=O)c1sc(-c2ccc(Cl)s2)nc1C was A: -1.121%; B: 33.85%; C: 2.361%; D: 1.916%; E: -1.458%; F: -1.72%. Result for CCn1c(C)nnc1SCCn1cc(-c2ncc[nH]2)nn1 was A: 8.225%; B: 0.7821%; C: -2.381%; D: 2.4%; E: -1.61%; F: -4.947%. CCc1cc(C)c(C(=O)N2CCCC(c3nnn[nH]3)C2)o1 (centres undefined) gave A: 10.87%; B: 3.508%; C: -1.538%; D: 6.186%; E: -2.562%; F: 13.96%. COCCC(=O)N1CC[C@H]2C(=O)N(c3ccsc3)CCO[C@H]2C1 gave A: -0.3543%; B: 0.8421%; C: -3.074%; D: 0%; E: -6.038%; F: -10.62%.

With Cn1cncc1C(=O)N1C[C@@H]2CCN(c3cnccn3)C[C@@H]2C1 the screen gave A: 7.348%; B: -6.262%; C: 5.172%; D: 7.216%; E: -3.189%; F: -0.6476%. With Cc1cc(CNC(=O)NCC(O)c2cccc(C(F)(F)F)c2)no1 (centres undefined) the screen gave A: 7.32%; B: -10.98%; C: -7.921%; D: 8.434%; E: -0.3458%; F: 0.3587%. CC(C)N1CCc2c(C(=O)N3CCOCC3)nn(C)c2C1 gave A: 2.86%; B: -12.61%; C: 3.951%; D: 9.524%; F: -4.925%. CCc1noc(C(C)N2CCC(C(=O)Nc3cnn(CC)c3)CC2)n1 (centres undefined) gave A: -4.065%; B: -13.87%; C: 3.655%; D: 2.632%; E: -3.801%; F: -0.9433%.

O=C(CCNC(=O)NC1CCN(C2CC2)CC1)NCc1ccccc1 gave A: 5.427%; B: -33.45%; C: -0.9724%; D: 6.061%; E: -2.062%; F: 3.066%.

The last 2 entries again:

Result for CCc1noc(C(C)N2CCC(C(=O)Nc3cnn(CC)c3)CC2)n1 (centres undefined) was A: -4.065%; B: -13.87%; C: 3.655%; D: 2.632%; E: -3.801%; F: -0.9433%.
Result for O=C(CCNC(=O)NC1CCN(C2CC2)CC1)NCc1ccccc1 was A: 5.427%; B: -33.45%; C: -0.9724%; D: 6.061%; E: -2.062%; F: 3.066%.